PubChem BioAssay AID1259254 | NCATS – 2017
Here is an unselected part of about 59,000 reagents. About 1,550 of all reagents (2.6%) were called active. 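G2 share is only a proxy for re-replication; each gene was hit by three separate siRNAs, and active genes were retested.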 Reagents against one gene are numbered here. Further read-outs or replicates are left out here. Not stated in the record: the amount of reagent.

Purpose: 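Genome-wide screen for genes that prevent DNA re-replication in cancer cells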 (primary screen)
System: human HCT116 colorectal cancer cells
Reagent: single siRNA against human genes
Time to read-out: 3 days
Read-out: 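Nuclei stained with Hoechst and imaged; cell-cycle phase assigned by DNA content; G2 share scaled per plate, non-targeting siRNA 0%, GMNN siRNA 100%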
Direction: G2 robust z-score: higher = more G2 cells, more excess DNA replication
Rule for the call: 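Active siRNAs have a G2 robust z of 5 or more median absolute deviations over the median, which in these data means about 38% or higher of GMNN control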

What did the screen give for ZNF124 #1?
G2 robust z-score: -0.0569; call: inactive

With ZNF124 #2, what was measured?
G2 robust z-score: -1.18; call: inactive

How did the screen score ZNF124 #3?
G2 robust z-score: 0.316; call: inactive

For LOC441722 #1, what was measured?
G2 robust z-score: 0.939; call: inactive

How did the screen score LOC441722 #2?
G2 robust z-score: 0.877; call: inactive

With LOC441722 #3, how do the results read?
G2 robust z-score: -1.04; call: inactive

How did the screen score IMPDH1 #1?
G2 robust z-score: -0.257; call: inactive

For IMPDH1 #2, how do the results read?
G2 robust z-score: -0.436; call: inactive

What did the screen give for IMPDH1 #3?
G2 robust z-score: -0.686; call: inactive

With PCDHB13 #1, what was measured?
G2 robust z-score: -0.0871; call: inactive

With PCDHB13 #2, what was measured?
G2 robust z-score: -0.917; call: inactive

What did the screen give for PCDHB13 #3?
G2 robust z-score: 0.71; call: inactive

Not a retest: entries from further up.
LOC441722 #3 — G2 robust z-score: -1.04; call: inactive
IMPDH1 #1 — G2 robust z-score: -0.257; call: inactive
